{"source": "PubChem BioAssay AID1224826 | NIAID, 2016", "test": "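Genes that change LPS-induced Tnf promoter activity in mouse macrophages when knocked down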 (primary screen)", "cell system": "RAW264.7 G9 macrophages from mouse bearing reporters for p65 (GFP) and the Tnf promoter (mCherry)", "knock-down reagent": "siRNA pool against mouse genes, 100 nM", "time to read-out": "16 h of LPS stimulation, after 2 days of siRNA transfection", "conditions": "bacterial lipopolysaccharide (Salmonella minnesota R595), 10 ng/ml", "read-out": "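Nuclear mCherry signal of the Tnf promoter reporter measured by imaging after background removal, scaled to each plate median and turned into robust z-scores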", "reading the numbers": "Tnf reporter robust z-score: higher = stronger Tnf promoter reporter signal after LPS", "rule for the call": "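a well counts as active at a score of -1.3 or below (Tlr4 knock-down control median) or above 3 (raised signal); controls and wells holding fewer than 50 cells are excluded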", "calls": "active = Tnf reporter clearly lowered or raised; inactive = no clear change in Tnf reporter", "note": "Here is a random part of about 17,000 deposited reagents. Over the whole deposit, about 1,110 (6.6%) are marked active. 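Active means lowered or raised reporter signal; replicate intensities are raw and not normalised per plate.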 A number with no mark means an inactive call. Not all columns of the deposit are shown."}
{"gene symbol":"E130113K22RIK","PubChem SID":"SID315482034","Tnf reporter robust z-score":1.25,"fewer than 50 cells in well":"enough cells in well"}
{"gene symbol":"Itfg2","PubChem SID":"SID315476262","Tnf reporter robust z-score":2.57,"fewer than 50 cells in well":"enough cells in well"}
{"gene symbol":"Mettl6","PubChem SID":"SID315472776","Tnf reporter robust z-score":-0.96,"fewer than 50 cells in well":"enough cells in well"}
{"gene symbol":"Zbtb24","PubChem SID":"SID315480755","Tnf reporter robust z-score":0.49,"fewer than 50 cells in well":"enough cells in well"}
{"gene symbol":"Cebpz","PubChem SID":"SID315465929","Tnf reporter robust z-score":-0.21,"fewer than 50 cells in well":"enough cells in well"}
{"gene symbol":"Rsph6a","PubChem SID":"SID315475822","fewer than 50 cells in well":"fewer than 50 cells per well; well left out of calls"}
{"gene symbol":"Edf1","PubChem SID":"SID315471957","Tnf reporter robust z-score":0.74,"fewer than 50 cells in well":"enough cells in well"}

Only “Tnf reporter robust z-score” (2 entries from above):
Mettl6 [SID315472776]	-0.96
Zbtb24 [SID315480755]	0.49

The list goes on.
{"gene symbol":"Adprs","PubChem SID":"SID315476215","Tnf reporter robust z-score":-0.9,"fewer than 50 cells in well":"enough cells in well"}
{"gene symbol":"Lrrtm1","PubChem SID":"SID315474945","Tnf reporter robust z-score":-0.55,"fewer than 50 cells in well":"enough cells in well"}
{"gene symbol":"Wdr41","PubChem SID":"SID315478195","Tnf reporter robust z-score":0.71,"fewer than 50 cells in well":"enough cells in well"}
{"gene symbol":"Ncf1","PubChem SID":"SID315468108","Tnf reporter robust z-score":-0.18,"fewer than 50 cells in well":"enough cells in well"}
{"gene symbol":"Foxi2","PubChem SID":"SID315480906","Tnf reporter robust z-score":1.57,"fewer than 50 cells in well":"enough cells in well"}
